In all, about 360,000 compounds went through this assay and about 7,500 (2.1%) were called active. This list was built around the results that the source calls inconclusive (neither active nor inactive); the mix of calls is not that of the screen. Calls come from the whole dose curve; as a rule, active = well fitted inhibition curve with a large enough effect; inconclusive = small, poorly fitted or top-dose-only effect, or effect the other way; inactive = flat fitted curve, though single readings scatter. Where the call is inconclusive, the potency comes from a doubtful curve fit.
Assay: Nrf2 qHTS screen for inhibitors; note: nearly all actives have a fitted effect of over 60% in size
Conditions: A549 ARE-Fluc reporter, luciferase luminescence, 18-24 h; activity change, negative = inhibition: at 46 µM (top of the series)
In short: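 Reporter: ARE-Fluc in A549. Exposure: 18-24 h, 37 °C, 5% CO2, 5% FBS OPTI-MEM. Readouts: fluorescent cytotoxicity (CellTiter-Fluor), then luminescent Nrf2 signal after BugLite.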
% is set by controls: 0 for no effect and ±100 for the full control effect; potency is the fitted concentration of half-maximal effect.

SMILES | Potency | activity change, negative = inhibition
COc1ccc(-c2csc(NC(=O)c3c(OC)cccc3OC)n2)cc1 | inconclusive: 8.2 µM [falling, partial curve, poor fit] | 
COc1ccc(S(=O)(=O)Nc2cccc3c2O[C@H](CN(C)Cc2ccc(Oc4ccccc4)cc2)[C@@H](C)CN([C@H](C)CO)C3=O)cc1 | active: 16.4 µM | 
COc1ccc(-c2cc3c(=O)n(CC(=O)NCc4ccc(F)cc4)ncn3n2)cc1 | inconclusive: 8.2 µM [activator, partial curve, poor fit] | 
Cc1nn(-c2ccccc2)c(C)c1/C=N/NC(=O)c1cc(-c2ccc(Br)s2)[nH]n1 | inconclusive: 4.11 µM [falling, full curve] | 
CCOC(=O)CN1C(=O)S/C(=C\c2ccc(-c3cccc(C(=O)O)c3C)o2)C1=O | inconclusive: 20.6 µM [activator, partial curve] | 
Cc1cc2ncn(C(=O)N3CCCCC3)c2cc1C | inconclusive: 23.1 µM [activator, single point] | 
CCOCCn1c(CN2CCN(c3ccc(F)cc3)CC2)nc2c1c(=O)n(C)c(=O)n2C | inconclusive: 14.6 µM [falling, single point] | 
CC(=O)c1cccc(NC(=O)c2cc(-c3ccc4c(c3)OCCO4)on2)c1 | inconclusive: 20.6 µM [falling, single point] | 
C/C(=N\NC(=S)NC1CCCCC1)c1ccc(OC(F)F)cc1OC(F)F | active: 20.6 µM | 
Cc1ccc2nc(-c3ccc(NC(=O)COCC(=O)O)cc3)sc2c1 | inconclusive: 18.4 µM [activator, single point] | 
CCCOc1ccc(C(=O)Nc2ccc(S(=O)(=O)N3CCN(C)CC3)cc2)cc1 | inconclusive: 18.4 µM [falling, single point] | 
CC(C)=CC(=O)NCCc1ccccc1 | inconclusive: 1.84 µM [activator, partial curve] | 
CCN(c1cccc(C(F)(F)F)c1)S(=O)(=O)c1ccc2c(c1)CCN2C(C)=O | inconclusive: 29.1 µM [falling, single point] | 
COc1ccc(CCNC(=O)c2cc3c(=O)[nH]c4ccc(C)cc4c3s2)cc1OC | inconclusive: 16.4 µM [falling, partial curve, poor fit] | 
Cc1cccn2c(=O)c3cc(C(=O)N4CCCCC4)sc3nc12 | inconclusive: 0.184 µM [activator, full curve] | 
COC(=O)Cc1ccc(NC(=O)c2ccc(C(C)(C)C)cc2)cc1 | active: 2.06 µM | 
CCOC(=O)CSc1snnc1C |  | inactive: 6.8%
CCn1cc([N+](=O)[O-])c(C(=O)N2N=C(c3ccccc3)CC2c2ccc([N+](=O)[O-])cc2)n1 (configuration not stated) | inconclusive: 13 µM [falling, partial curve] | 
Cn1c(CNC(=O)Nc2ccccc2Cl)nnc1SCc1ccccc1 | inconclusive: 9.2 µM [activator, partial curve] | 
COc1cc(C(CCN2CCCC2)c2c(OC)cc(OC)c3c(-c4ccccc4)cc(=O)oc23)cc(OC)c1OC (configuration not stated) | inactive | 
CC(=O)c1ccc(N2CCN(C(=O)Nc3ccc(F)cc3F)CC2)cc1 | inconclusive: 25.9 µM [falling, single point] | 

SMILES | Potency | activity change, negative = inhibition
COc1cccc(-c2ccc3ncnc(NCc4ccc5c(c4)OCO5)c3c2)c1 | active: 16.4 µM | 
COCCNC(=O)c1ccc(Cl)c(Cl)c1 | inconclusive: 6.51 µM [activator, single point] | 
COc1cccc(NC(=O)NC(C)C2CC3CCC2C3)c1 (configuration not stated) | inconclusive: 23.1 µM [activator, partial curve, poor fit] | 
COc1ccc(NC(=O)c2cccc(Cn3cc(Br)cn3)c2)cn1 | inconclusive: 14.6 µM [falling, single point] | 
c1ccn(-c2ccc(-c3ccn[nH]3)cc2)c1 | inconclusive: 6.51 µM [falling, single point] | 
O=C(Nc1ncc([N+](=O)[O-])s1)C1COc2ccccc2O1 (configuration not stated) | active: 14.6 µM | 
Cc1cccc(-c2ocnc2C(=O)N2CCN(C(=O)c3cccs3)CC2)c1 | inconclusive: 25.9 µM [activator, single point] | 
Cc1cc(C)n(-c2nc(-c3cccc(Cl)c3)cs2)n1 | inconclusive: 16.4 µM [activator, partial curve] | 
C=CCn1c(SCC(=O)c2c(C)[nH]c3ccccc23)nnc1-c1ccncc1 |  | inactive: 1.2%
COc1cc(OC)cc(-c2cc3ccc(OC)cc3cn2)c1 | inconclusive: 2.91 µM [activator, full curve] | 
COc1ccc(CCCc2nnc(SCC(=O)Nc3ccc(Cl)cc3)o2)cc1 | active: 20.6 µM | 
O=C(/C=C/c1ccc(Br)cc1)N1CCN(Cc2ccccc2)CC1 | inconclusive: 1.16 µM [activator, full curve] | 
O=C(Nc1ccc(F)cc1)c1ccccc1NC(=O)C1CCCCC1C(=O)O (configuration not stated) | inconclusive: 23.1 µM [activator, partial curve, poor fit] | 
Cc1oc2ncnc(N3CCCCC3)c2c1C(=O)Nc1cccc(F)c1 | inconclusive: 4.11 µM [activator, partial curve, poor fit] | 
O=C(Cc1ccc(-c2ccccc2)cc1)Nc1ccccn1 | inconclusive: 29.1 µM [falling, single point] | 
CC12CCC(C)(O1)C1C(=O)N(c3nccs3)C(=O)C12 (configuration not stated) |  | inactive: 8.36%
O=S(=O)(Nc1cc(Br)cc2cccnc12)c1ccccc1 | inconclusive: 18.4 µM [falling, partial curve, poor fit] | 
CCc1ccccc1NC(=O)c1ccc2[nH]c(C)c(C)c2c1 | inconclusive: 2.59 µM [falling, full curve] | 
CN(Cc1ccc(F)cc1)C(=O)c1cccc(S(=O)(=O)N2CCN(Cc3ccccc3)CC2)c1 | inconclusive: 20.6 µM [falling, single point] | 
CCN(C(=O)COC(=O)/C(=C/c1ccccc1)n1nnnc1C)C1CCCCC1 | inconclusive: 23.1 µM [falling, partial curve, poor fit] | 
CC(C)(C)c1nn(-c2ccccc2)c2[nH]c(=O)c(CNc3ccc4c(c3)OCCO4)cc12 | inconclusive: 29.1 µM [falling, single point] | 

Looked up by compound from the list above:
SMILES | Potency | activity change, negative = inhibition
COc1cc(OC)cc(-c2cc3ccc(OC)cc3cn2)c1 | inconclusive: 2.91 µM [activator, full curve] | 
O=C(/C=C/c1ccc(Br)cc1)N1CCN(Cc2ccccc2)CC1 | inconclusive: 1.16 µM [activator, full curve] | 
COc1ccc(NC(=O)c2cccc(Cn3cc(Br)cn3)c2)cn1 | inconclusive: 14.6 µM [falling, single point] | 
COc1ccc(CCCc2nnc(SCC(=O)Nc3ccc(Cl)cc3)o2)cc1 | active: 20.6 µM | 
